Source: paper PMC8698834
These are yes or no findings as the source states them, for the method shown. Some entries that bind do so weakly or less than the wild type.

The chains behind the UniProt entries cited, without tags or fusion partners.
UniProt Q04IN8: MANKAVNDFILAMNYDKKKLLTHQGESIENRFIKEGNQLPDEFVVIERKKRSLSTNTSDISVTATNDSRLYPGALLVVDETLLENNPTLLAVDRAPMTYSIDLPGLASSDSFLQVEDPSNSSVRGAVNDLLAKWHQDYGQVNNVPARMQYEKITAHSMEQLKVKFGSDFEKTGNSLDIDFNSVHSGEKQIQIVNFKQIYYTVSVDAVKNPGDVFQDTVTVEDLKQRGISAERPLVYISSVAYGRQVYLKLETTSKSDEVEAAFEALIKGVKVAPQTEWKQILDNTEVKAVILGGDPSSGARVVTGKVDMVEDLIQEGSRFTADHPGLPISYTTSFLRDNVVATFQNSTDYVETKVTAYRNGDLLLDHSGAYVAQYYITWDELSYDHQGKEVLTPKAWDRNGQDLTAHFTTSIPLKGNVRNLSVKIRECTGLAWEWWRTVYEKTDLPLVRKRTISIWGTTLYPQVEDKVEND

Molecular target: recombinant pneumolysin (PLY) of Streptococcus pneumoniae (Streptococcus pneumoniae) (UniProt Q04IN8)
Test: SDS-resistant oligomers by SDS-PAGE and western blotting; rPLY 1 ug/mL in PBS, preincubated at 37 °C for 1 h with or without matcha supernatant (20-320 ug/mL) or catechins (0.1 or 1 mg/mL), then with 1% (v/v) sheep erythrocytes at 37 °C for 1 h; SDS sample buffer without beta-mercaptoethanol, 50 °C for 10 min; 7.5% SDS-PAGE; blot with anti-PLY clone PLY-4; oligomer on erythrocyte membranes; both purified

Substance: recombinant pneumolysin (PLY) of Streptococcus pneumoniae (from UniProt Q04IN8 1-471)
- binding: binds
